In patent publication US20130149287A1, “Corticogenesis of Human Pluripotent Cells” (Cambridge Enterprise Limited, priority 2010, published 2013):
For at least one compound, name, drawing or mass did not settle the structure.

Test system: gamma-secretase complex
Experiment: Sandwich ELISA of secreted Aβ40 and Aβ42 in DS cortical neuron culture supernatant under gamma-secretase inhibition
Assay type: cell-based, human
Settings: DS cortical neurons, DAPT for 4 days; ratio without inhibitor 4.6:1
Procedure: Quantification of secreted Aβ40 and Aβ42 was carried out by sandwich ELISA (Invitrogen) of 50 μl of cell culture supernatant from cultures of DS, iPS control and H9 hES cortical neurons. For quantification of water-soluble and insoluble Aβ peptides, water- and formic acid-soluble protein fractions from whole cell extracts of cortical cultures were prepared and levels of each peptide measured by ELISA (Invitrogen). Inhibition of gamma-secretase was carried out in DS cortical cultures by addition of DAPT (Calbiochem) every 48 hours from day 50 of differentiation onwards.

## C[C@H](NC(=O)Cc1cc(F)cc(F)c1)C(=O)N[C@H](C(=O)OC(C)(C)C)c1ccccc1 [DAPT]
  secreted Aβ40:Aβ42 ratio: 7.5:1
